Results from PubChem BioAssay AID248 (DTP/NCI, 2004).
The list does not hold the whole screen: it gathers some chemical classes. Other doses and runs of a compound may be missing. T/C: endpoint of the treated group in % of that of the vehicle group. For survival time, the PubChem record calls one and a half times the control and up active, and a quarter to a half above the control has no call in these data; cut-offs in other NCI protocols can differ. Some T/C values are marked as having no survivor count here; that says nothing about deaths at the dose. Schedule codes are those of the source, taken here to give the interval after Q, in days (D) or hours (H), and the number of doses after X. Some doses were run more than once; their values stand side by side, smallest first. Some schedules carry Z or #; the key to these is not given.

System: L1210 leukemia ip in BDF1 mice, survival T/C
Experiment: NCI In Vivo Anticancer Drug Screen. Data for tumor model L1210 Leukemia (intraperitoneal) in B6D2F1 (BDF1) mice
Settings: higher T/C = longer survival

In the case of `NC(Cc1cccc(N(CCCl)CCCl)c1)C(=O)O` (stereo unspecified), the T/C (T/C endpoint: mean survival time, dose: 4.0 mg/kg/injection, schedule: Q01DX001 (sc), vehicle: carboxymethylcellulose (CMC)) is reported as 112 % of control [survivor count not shown], the T/C (T/C endpoint: mean survival time, dose: 4.0 mg/kg/injection, schedule: Q01DX009 (ip), vehicle: carboxymethylcellulose (CMC)) is reported as 128 % of control [survivor count not shown] and the T/C (T/C endpoint: mean survival time, dose: 4.0 mg/kg/injection, schedule: Q01DX009 (oral), vehicle: carboxymethylcellulose (CMC)) is reported as 137 % of control [survivor count not shown]. The T/C (T/C endpoint: mean survival time, dose: 4.0 mg/kg/injection, schedule: Q01DX009 (sc), vehicle: carboxymethylcellulose (CMC)) was 145 % of control [survivor count not shown], the T/C (T/C endpoint: mean survival time, dose: 4.0 mg/kg/injection, schedule: Q01DX Z (im), vehicle: carboxymethylcellulose (CMC)) was 154 % of control [survivor count not shown] and the T/C (T/C endpoint: mean survival time, dose: 4.0 mg/kg/injection, schedule: Q01DX Z (ip), vehicle: carboxymethylcellulose (CMC)) was 168 % of control [survivor count not shown]. For the same compound, the T/C (T/C endpoint: mean survival time, dose: 4.0 mg/kg/injection, schedule: Q01DX Z (oral), vehicle: carboxymethylcellulose (CMC)) was 143 % of control [survivor count not shown], the T/C (T/C endpoint: mean survival time, dose: 4.0 mg/kg/injection, schedule: Q01DX Z (sc), vehicle: carboxymethylcellulose (CMC)) was 160 % of control [survivor count not shown] and the T/C (T/C endpoint: mean survival time, dose: 4.0 mg/kg/injection, schedule: Q## X002 (ip), vehicle: carboxymethylcellulose (CMC)) was 146 [survivor count not shown] and 167 % of control [survivor count not shown]. For the same compound, the T/C (T/C endpoint: mean survival time, dose: 4.0 mg/kg/injection, schedule: Q## X002 (oral), vehicle: carboxymethylcellulose (CMC)) was 142 % of control [survivor count not shown], the T/C (T/C endpoint: mean survival time, dose: 4.0 mg/kg/injection, schedule: Q## X003 (ip), vehicle: carboxymethylcellulose (CMC)) was 160 [survivor count not shown] and 164 % of control [survivor count not shown] and the T/C (T/C endpoint: mean survival time, dose: 4.0 mg/kg/injection, schedule: Q## X008 (ip), vehicle: carboxymethylcellulose (CMC)) was 122 % of control [survivor count not shown]. For the same compound, the T/C (T/C endpoint: mean survival time, dose: 4.0 mg/kg/injection, schedule: Q## X016 (ip), vehicle: carboxymethylcellulose (CMC)) was 114 % of control [survivor count not shown], the T/C (T/C endpoint: mean survival time, dose: 4.0 mg/kg/injection, schedule: Q## X024 (ip), vehicle: carboxymethylcellulose (CMC)) was 132 % of control [survivor count not shown] and the T/C (T/C endpoint: mean survival time, dose: 4.4 mg/kg/injection, schedule: Q01DX001 (ip), vehicle: carboxymethylcellulose (CMC)) was 134 % of control [survivor count not shown]. For the same compound, the T/C (T/C endpoint: mean survival time, dose: 4.44 mg/kg/injection, schedule: Q01DX009 (ip), vehicle: other) was 140 % of control [survivor count not shown], the T/C (T/C endpoint: mean survival time, dose: 5.0 mg/kg/injection, schedule: Q01DX001 (ip), vehicle: saline) was 111 % of control [survivor count not shown] and the T/C (T/C endpoint: mean survival time, dose: 5.0 mg/kg/injection, schedule: Q01DX009 (ip), vehicle: saline) was 148 [survivor count not shown] and 179 % of control [survivor count not shown]. The T/C (T/C endpoint: mean survival time, dose: 5.0 mg/kg/injection, schedule: Q01DX010 (ip), vehicle: saline) was 86 [survivor count not shown] and 87 % of control [survivor count not shown], the T/C (T/C endpoint: mean survival time, dose: 6.0 mg/kg/injection, schedule: Q01DX Z (oral), vehicle: carboxymethylcellulose (CMC)) was 130 [survivor count not shown] and 137 % of control [survivor count not shown] and the T/C (T/C endpoint: mean survival time, dose: 6.6 mg/kg/injection, schedule: Q01DX001 (ip), vehicle: carboxymethylcellulose (CMC)) was 143 % of control [survivor count not shown]. The T/C (T/C endpoint: mean survival time, dose: 8.0 mg/kg/injection, schedule: Q01DX001 (ip), vehicle: carboxymethylcellulose (CMC)) was 113 [survivor count not shown] and 170 % of control [survivor count not shown], the T/C (T/C endpoint: mean survival time, dose: 8.0 mg/kg/injection, schedule: Q01DX001 (oral), vehicle: carboxymethylcellulose (CMC)) was 123 % of control [survivor count not shown] and the T/C (T/C endpoint: mean survival time, dose: 8.0 mg/kg/injection, schedule: Q01DX001 (sc), vehicle: carboxymethylcellulose (CMC)) was 119 % of control [survivor count not shown]. For the same compound, the T/C (T/C endpoint: mean survival time, dose: 8.0 mg/kg/injection, schedule: Q01DX009 (oral), vehicle: carboxymethylcellulose (CMC)) was 110 % of control [survivor count not shown], the T/C (T/C endpoint: mean survival time, dose: 8.0 mg/kg/injection, schedule: Q01DX009 (sc), vehicle: carboxymethylcellulose (CMC)) was 97 % of control [survivor count not shown] and the T/C (T/C endpoint: mean survival time, dose: 8.0 mg/kg/injection, schedule: Q01DX Z (im), vehicle: carboxymethylcellulose (CMC)) was 100 [survivor count not shown] and 134 % of control [survivor count not shown]. For the same compound, the T/C (T/C endpoint: mean survival time, dose: 8.0 mg/kg/injection, schedule: Q01DX Z (ip), vehicle: carboxymethylcellulose (CMC)) was 101 % of control [survivor count not shown], the T/C (T/C endpoint: mean survival time, dose: 8.0 mg/kg/injection, schedule: Q01DX Z (sc), vehicle: carboxymethylcellulose (CMC)) was 95 [survivor count not shown] and 112 % of control [survivor count not shown] and the T/C (T/C endpoint: mean survival time, dose: 8.0 mg/kg/injection, schedule: Q## X002 (ip), vehicle: carboxymethylcellulose (CMC)) was 124 [survivor count not shown] and 184 % of control [survivor count not shown]. The T/C (T/C endpoint: mean survival time, dose: 8.0 mg/kg/injection, schedule: Q## X002 (oral), vehicle: carboxymethylcellulose (CMC)) was 139 % of control [survivor count not shown], the T/C (T/C endpoint: mean survival time, dose: 8.0 mg/kg/injection, schedule: Q## X003 (ip), vehicle: carboxymethylcellulose (CMC)) was 140 [survivor count not shown] and 180 % of control [survivor count not shown] and the T/C (T/C endpoint: mean survival time, dose: 8.0 mg/kg/injection, schedule: Q## X008 (ip), vehicle: carboxymethylcellulose (CMC)) was 158 % of control [survivor count not shown]. The T/C (T/C endpoint: mean survival time, dose: 8.0 mg/kg/injection, schedule: Q## X016 (ip), vehicle: carboxymethylcellulose (CMC)) was 157 % of control [survivor count not shown], the T/C (T/C endpoint: mean survival time, dose: 8.0 mg/kg/injection, schedule: Q## X024 (ip), vehicle: carboxymethylcellulose (CMC)) was 151 % of control [survivor count not shown] and the T/C (T/C endpoint: mean survival time, dose: 8.88 mg/kg/injection, schedule: Q01DX001 (ip), vehicle: saline) was 170 % of control [survivor count not shown]. For the same compound, the T/C (T/C endpoint: mean survival time, dose: 10.0 mg/kg/injection, schedule: Q01DX001 (ip), vehicle: carboxymethylcellulose (CMC)) was 135 [survivor count not shown] and 163 % of control [survivor count not shown], the T/C (T/C endpoint: mean survival time, dose: 10.0 mg/kg/injection, schedule: Q01DX001 (ip), vehicle: saline) was 114 % of control [survivor count not shown] and the T/C (T/C endpoint: mean survival time, dose: 10.0 mg/kg/injection, schedule: Q01DX009 (ip), vehicle: saline) was 90 % of control [survivor count not shown]. The T/C (T/C endpoint: mean survival time, dose: 12.0 mg/kg/injection, schedule: Q01DX Z (oral), vehicle: carboxymethylcellulose (CMC)) was 94 % of control [survivor count not shown], the T/C (T/C endpoint: mean survival time, dose: 12.0 mg/kg/injection, schedule: Q01DX Z (sc), vehicle: carboxymethylcellulose (CMC)) was 88 % of control [survivor count not shown] and the T/C (T/C endpoint: mean survival time, dose: 16.0 mg/kg/injection, schedule: Q01DX001 (ip), vehicle: carboxymethylcellulose (CMC)) was 93 % of control [survivor count not shown]. The T/C (T/C endpoint: mean survival time, dose: 16.0 mg/kg/injection, schedule: Q01DX001 (oral), vehicle: carboxymethylcellulose (CMC)) was 128 % of control [survivor count not shown], the T/C (T/C endpoint: mean survival time, dose: 16.0 mg/kg/injection, schedule: Q01DX001 (sc), vehicle: carboxymethylcellulose (CMC)) was 137 % of control [survivor count not shown] and the T/C (T/C endpoint: mean survival time, dose: 16.0 mg/kg/injection, schedule: Q## X002 (ip), vehicle: carboxymethylcellulose (CMC)) was 225 % of control [survivor count not shown]. For the same compound, the T/C (T/C endpoint: mean survival time, dose: 16.0 mg/kg/injection, schedule: Q## X002 (oral), vehicle: carboxymethylcellulose (CMC)) was 101 % of control [survivor count not shown], the T/C (T/C endpoint: mean survival time, dose: 16.0 mg/kg/injection, schedule: Q## X003 (ip), vehicle: carboxymethylcellulose (CMC)) was 129 % of control [survivor count not shown] and the T/C (T/C endpoint: mean survival time, dose: 16.0 mg/kg/injection, schedule: Q## X024 (ip), vehicle: carboxymethylcellulose (CMC)) was 93 % of control [survivor count not shown]. The T/C (T/C endpoint: mean survival time, dose: 20.0 mg/kg/injection, schedule: Q01DX001 (ip), vehicle: carboxymethylcellulose (CMC)) was 146 % of control [survivor count not shown], the T/C (T/C endpoint: mean survival time, dose: 20.0 mg/kg/injection, schedule: Q01DX001 (ip), vehicle: saline) was 156 % of control [survivor count not shown] and the T/C (T/C endpoint: mean survival time, dose: 32.0 mg/kg/injection, schedule: Q01DX001 (oral), vehicle: carboxymethylcellulose (CMC)) was 95 % of control [survivor count not shown]. For the same compound, the T/C (T/C endpoint: mean survival time, dose: 32.0 mg/kg/injection, schedule: Q01DX001 (sc), vehicle: carboxymethylcellulose (CMC)) was 114 % of control [survivor count not shown], the T/C (T/C endpoint: mean survival time, dose: 40.0 mg/kg/injection, schedule: Q01DX001 (ip), vehicle: carboxymethylcellulose (CMC)) was 108 % of control [survivor count not shown] and the T/C (T/C endpoint: mean survival time, dose: 80.0 mg/kg/injection, schedule: Q01DX001 (ip), vehicle: carboxymethylcellulose (CMC)) was 108 [survivor count not shown] and 111 % of control [survivor count not shown]. For the same compound, the T/C (T/C endpoint: mean survival time, dose: 120.0 mg/kg/injection, schedule: Q01DX001 (ip), vehicle: carboxymethylcellulose (CMC)) was 114 % of control [survivor count not shown], the T/C (T/C endpoint: mean survival time, dose: 180.0 mg/kg/injection, schedule: Q01DX001 (ip), vehicle: carboxymethylcellulose (CMC)) was 129 % of control [survivor count not shown] and the T/C (T/C endpoint: mean survival time, dose: 270.0 mg/kg/injection, schedule: Q01DX001 (ip), vehicle: carboxymethylcellulose (CMC)) was 100 [survivor count not shown] and 112 % of control [survivor count not shown]. The T/C (T/C endpoint: mean survival time, dose: 400.0 mg/kg/injection, schedule: Q01DX001 (ip), vehicle: carboxymethylcellulose (CMC)) was 107 % of control [survivor count not shown], the T/C (T/C endpoint: median survival time, dose: 1.25 mg/kg/injection, schedule: Q01DX009 (ip), vehicle: saline) was 160 [survivor count not shown] and 193 % of control [survivor count not shown] and the T/C (T/C endpoint: median survival time, dose: 2.5 mg/kg/injection, schedule: Q01DX009 (ip), vehicle: saline) was 120 [survivor count not shown] and 186 % of control [survivor count not shown]. The T/C (T/C endpoint: median survival time, dose: 5.0 mg/kg/injection, schedule: Q01DX009 (ip), vehicle: saline) was 100 % of control [survivor count not shown].
